Reference: US10308606B2 (On Target Laboratories, LLC, priority 2016, dated 2019)

Test: general procedure: solution-phase peptide synthesis
Conditions: coupling step

“DUPA-(O^tBu)3-PEG2-Phe-Tyr-(O^tBu)-O^tBu” gave a step yield of 75%.
